Results are given in words; binding and its absence hold for the method and conditions named. In cells and extracts the contact can be indirect. Here binding means that the protein was enriched with, or labelled near, the bait; the list need not be complete.
Biological target: USP7 (ubiquitin-specific protease 7), endogenous in heart tissue of HFpEF mice (mouse (endogenous in heart tissue)) (UniProt Q6A4J8)
Experiment: affinity purification with mass spectrometry; co-immunoprecipitation from proteins of cardiac tissue of HFpEF mice, then LC-MS/MS; screen for substrates of USP7

The chains behind the UniProt entries cited, without tags or fusion partners.
UniProt Q6A4J8: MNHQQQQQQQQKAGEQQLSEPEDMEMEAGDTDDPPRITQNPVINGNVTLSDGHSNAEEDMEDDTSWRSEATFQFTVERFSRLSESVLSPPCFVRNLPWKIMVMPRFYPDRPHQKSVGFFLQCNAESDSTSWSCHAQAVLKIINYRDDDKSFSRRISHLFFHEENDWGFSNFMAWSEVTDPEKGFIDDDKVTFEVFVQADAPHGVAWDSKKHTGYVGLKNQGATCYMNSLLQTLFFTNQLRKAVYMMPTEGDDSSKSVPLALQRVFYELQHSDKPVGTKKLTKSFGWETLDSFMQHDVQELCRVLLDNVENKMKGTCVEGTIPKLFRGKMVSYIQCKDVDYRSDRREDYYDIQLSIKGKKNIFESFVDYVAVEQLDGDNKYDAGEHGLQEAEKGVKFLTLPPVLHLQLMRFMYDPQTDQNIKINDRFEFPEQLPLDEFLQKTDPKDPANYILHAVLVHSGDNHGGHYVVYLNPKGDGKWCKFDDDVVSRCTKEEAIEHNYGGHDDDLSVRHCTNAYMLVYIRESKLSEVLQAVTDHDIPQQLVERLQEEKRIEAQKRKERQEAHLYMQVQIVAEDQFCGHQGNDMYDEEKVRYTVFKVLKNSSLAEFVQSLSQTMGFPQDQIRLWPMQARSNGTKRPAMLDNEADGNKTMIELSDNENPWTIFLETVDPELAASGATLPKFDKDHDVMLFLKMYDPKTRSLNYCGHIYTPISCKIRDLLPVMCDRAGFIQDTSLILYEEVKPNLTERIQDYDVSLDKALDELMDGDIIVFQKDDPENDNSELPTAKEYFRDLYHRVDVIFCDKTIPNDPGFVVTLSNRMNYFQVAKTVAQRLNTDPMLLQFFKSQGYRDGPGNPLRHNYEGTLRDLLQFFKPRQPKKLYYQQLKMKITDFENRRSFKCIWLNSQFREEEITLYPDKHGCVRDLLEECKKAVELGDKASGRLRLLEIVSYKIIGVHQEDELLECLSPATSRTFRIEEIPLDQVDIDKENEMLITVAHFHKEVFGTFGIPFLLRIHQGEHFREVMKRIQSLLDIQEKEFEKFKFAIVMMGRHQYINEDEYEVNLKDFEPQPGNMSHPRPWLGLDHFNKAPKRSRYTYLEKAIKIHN
UniProt Q8BUN5: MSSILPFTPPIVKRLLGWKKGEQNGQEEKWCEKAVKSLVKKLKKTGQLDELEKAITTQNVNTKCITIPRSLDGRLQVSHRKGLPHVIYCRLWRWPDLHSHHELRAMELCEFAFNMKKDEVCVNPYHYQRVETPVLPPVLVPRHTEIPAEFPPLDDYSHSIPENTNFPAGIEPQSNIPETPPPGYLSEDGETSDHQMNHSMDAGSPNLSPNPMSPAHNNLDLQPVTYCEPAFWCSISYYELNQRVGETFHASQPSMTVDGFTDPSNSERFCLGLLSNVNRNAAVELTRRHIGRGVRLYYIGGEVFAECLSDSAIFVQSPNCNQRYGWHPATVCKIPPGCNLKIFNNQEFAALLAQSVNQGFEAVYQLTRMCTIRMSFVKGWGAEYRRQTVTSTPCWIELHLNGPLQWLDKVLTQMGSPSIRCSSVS

binding: binds
Substance: SMAD3, endogenous in heart tissue of HFpEF mice (from UniProt Q8BUN5 1-425)

— paper PMC11426239
